# Results reported in publication PMC11787384.
# By UniProt entry, the sequences of proteins in these tests, tags left out.
# UniProt P40763: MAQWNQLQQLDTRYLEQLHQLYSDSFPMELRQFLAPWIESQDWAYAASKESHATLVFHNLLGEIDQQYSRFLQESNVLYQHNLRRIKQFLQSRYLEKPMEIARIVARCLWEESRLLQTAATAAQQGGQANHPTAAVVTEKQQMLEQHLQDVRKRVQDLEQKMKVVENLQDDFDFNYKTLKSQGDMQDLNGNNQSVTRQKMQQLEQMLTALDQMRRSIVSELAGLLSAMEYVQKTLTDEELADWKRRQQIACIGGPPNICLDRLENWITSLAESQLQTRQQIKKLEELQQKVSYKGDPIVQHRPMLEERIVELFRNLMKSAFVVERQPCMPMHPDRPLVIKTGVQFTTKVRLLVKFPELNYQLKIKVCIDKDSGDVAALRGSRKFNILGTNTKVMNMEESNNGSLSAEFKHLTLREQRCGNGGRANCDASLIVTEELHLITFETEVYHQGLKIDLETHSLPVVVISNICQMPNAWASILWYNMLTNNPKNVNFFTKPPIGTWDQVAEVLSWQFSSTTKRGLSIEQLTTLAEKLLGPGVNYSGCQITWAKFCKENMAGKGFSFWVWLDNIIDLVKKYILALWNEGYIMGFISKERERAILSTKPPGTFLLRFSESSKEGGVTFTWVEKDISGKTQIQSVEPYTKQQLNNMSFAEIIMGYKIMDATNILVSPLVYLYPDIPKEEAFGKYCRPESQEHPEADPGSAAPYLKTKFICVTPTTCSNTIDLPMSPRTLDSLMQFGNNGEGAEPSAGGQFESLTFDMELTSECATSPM
# UniProt P42227: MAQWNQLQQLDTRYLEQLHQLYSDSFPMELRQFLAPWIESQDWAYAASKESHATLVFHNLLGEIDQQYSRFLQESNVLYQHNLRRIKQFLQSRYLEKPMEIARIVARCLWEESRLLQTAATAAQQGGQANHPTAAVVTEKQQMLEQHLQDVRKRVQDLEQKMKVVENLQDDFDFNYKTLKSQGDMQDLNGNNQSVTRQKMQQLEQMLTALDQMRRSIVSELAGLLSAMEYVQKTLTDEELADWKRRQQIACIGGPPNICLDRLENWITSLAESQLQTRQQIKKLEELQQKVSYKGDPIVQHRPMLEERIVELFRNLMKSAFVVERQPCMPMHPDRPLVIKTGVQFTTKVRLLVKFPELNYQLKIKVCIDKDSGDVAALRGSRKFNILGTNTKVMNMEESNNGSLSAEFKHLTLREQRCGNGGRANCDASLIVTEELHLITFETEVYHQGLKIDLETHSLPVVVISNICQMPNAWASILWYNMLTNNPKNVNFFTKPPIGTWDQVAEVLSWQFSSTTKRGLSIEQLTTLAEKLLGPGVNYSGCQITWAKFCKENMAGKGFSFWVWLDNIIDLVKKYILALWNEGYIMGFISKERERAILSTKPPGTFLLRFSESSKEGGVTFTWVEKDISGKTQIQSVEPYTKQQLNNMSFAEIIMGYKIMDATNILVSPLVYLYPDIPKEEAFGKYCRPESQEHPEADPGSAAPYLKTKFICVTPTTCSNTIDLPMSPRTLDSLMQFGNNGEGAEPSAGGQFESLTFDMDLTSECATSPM
# Numbering of substitutions follows the chain as printed. Results are given in words; binding and its absence hold for the method and conditions named. Binding seen in cells or lysates may run through a third protein. Some entries that bind do so weakly or less than the wild type. For part of these data: Where a sequence is shown, tags or fusion partners need not be part of it.
# T1: Myc-tagged full-length Pellino1 (human) (UniProt Q96FA3)
# T1 sequence: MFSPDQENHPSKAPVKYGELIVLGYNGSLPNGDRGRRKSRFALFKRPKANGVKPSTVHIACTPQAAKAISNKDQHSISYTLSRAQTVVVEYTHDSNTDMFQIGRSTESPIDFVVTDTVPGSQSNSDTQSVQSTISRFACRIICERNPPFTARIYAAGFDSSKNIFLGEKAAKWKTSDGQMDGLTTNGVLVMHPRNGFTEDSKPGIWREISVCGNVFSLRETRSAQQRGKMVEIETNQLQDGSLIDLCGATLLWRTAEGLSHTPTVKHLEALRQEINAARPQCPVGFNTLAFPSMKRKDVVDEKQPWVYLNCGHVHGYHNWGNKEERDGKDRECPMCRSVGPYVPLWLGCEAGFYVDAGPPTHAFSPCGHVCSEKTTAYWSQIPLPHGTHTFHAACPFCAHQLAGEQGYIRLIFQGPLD
# T2: Pellino1 (endogenous, mouse macrophage cells) (mouse (endogenous in RAW 264.7 and BMDMs)) (UniProt Q8C669)
# T2 sequence: T1 sequence with N146S
# B1: Pellino1 (endogenous, mouse macrophage cells) (protein, UniProt Q8C669 1-418)
# chain: T1 sequence with N146S
# Assays:
# [1] = molecular target: T1, Myc-tagged full-length Pellino1 (human); test: co-IP; HEK293T cells transfected with Myc-Pellino1 and Flag-STAT3 (WT or Y705F); IP with anti-Myc antibody overnight at 4 C, blot with anti-Flag; IP lysis buffer 50 mM Tris-HCl pH 7.4, 150 mM NaCl, 1 mM EDTA, 0.25% sodium deoxycholate, 1% NP-40
# [2] = molecular target: T2, Pellino1 (endogenous, mouse macrophage cells) (mouse (endogenous in RAW 264.7 and BMDMs)); test: co-IP; endogenous proteins; lysates of RAW cells untreated or treated with 100 ng/mL LPS for 6 h; IP with anti-Pellino1 antibody and protein A/G beads overnight at 4 C, blot with anti-STAT3
# [3] = molecular target: GST-STAT3 (UniProt P40763); test: pull-down; GST or GST-STAT3 (2 ug) rotated overnight at 4 C with 1000 ug lysate of RAW cells (with or without 100 ng/mL LPS for 6 h) or of BMDMs; lysis buffer 50 mM Tris-HCl pH 7.4, 150 mM NaCl, 1% Tween 20, 0.2% NP-40, 10% glycerol; blot for Pellino1; only the target purified
molecule,measurement,setting,value
Flag-tagged STAT3 (from UniProt P40763 1-770),binding,[1],binds
"STAT3 (endogenous, RAW cells) (from UniProt P42227 1-770)",binding,[2],binds
B1,binding,[3],binds
